What is called KM is the substrate concentration at which the rate is half of its maximum.

± gives the standard error. Many of these values have a large error.

First the molecules themselves.
B1: glmS ribozyme (parent)
chain: AUAAAAGCGCCAGAACUACAGAAAUGUAGUUGACGAGGAGGAGGUUUAUCGAAUUUUCGGCGGAUGCCUCCAAA

One data set covers variants of B1. Briefly: KM; higher = weaker cofactor use; RNA array. The conditions noted are these: with glucosamine-6-phosphate. A digest of the protocol:
(§1)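 Glucosamine-6-phosphate in HEPES/KCl/Mg(OAc)2 buffer, at 40 μM to 10 mM, was flowed over barcoded ribozyme variants transcribed in situ by E. coli RNA polymerase on sequenced MiSeq chips. Tracking was through a hybridised Cy3 probe at 37 °C. kobs, kcat and KM came from exponential decay fits and weighted Michaelis–Menten fits of normalised per-tile medians.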
AUAAAAGCGCCAGCACUACAGAAAUGUACUUGACGAGGAGGAGGUUUAUCGAAUUUUCGGCGGAUGCCUCCAAA: the KM was determined as 12.4 ± 6.7 mM.

Turning to AUAAAAGCGCCUGAACUACAGAAAUGUAGUUGACGAGGAGGAGGUUUAUCGAAUUUUAGGCGGAUGCCUCCAAA, the KM came to 24.1 ± 8.9 mM.

In the case of AUAAAAGCGCCAAAACUACAGAAAUGUAGUUGACGAGGAGGAGGUUUAUCGAAUUUUCGGCGGAAGCCUCCAAA, the KM was 10.1 ± 6.1 mM.

With AUAAAAGCGCCUGAACUACAGAAAUGUAGUUGACGAGGAGGAGGGUUAUCGAAUUUUCGGCGGAUGCCUCCAAA, the KM amounted to 1.87 ± 0.53 mM.

Consider AUAAAAGCGCCUGAACUACAGAAAUGUAGUUGACGAGGAGGAGGUUUAUCGAAUUUUCGGCGGAUGCCUUCAAA, for which the KM was 0.0843 ± 0.067 mM.

As for AUAAAAGCGCCAAAACUACAGAAAUGUAGUUGACGAGGAGGAGGUUUAUCGAAUUGUCGGCGGAUGCCUCCAAA, the KM came out at 3.8 ± 1.3 mM.

Turning to AUAAAAGCGCCAAAACUACAGAAAUGUAGUUGACGAGGAGGAGGUUUAUCGAAUUCUCGGCGGAUGCCUCCAAA, the KM is 10.1 ± 0.3 mM.

As for AUAAAAGCGCCAGCACUACAGAAAUGUAGUUGACGAGGAGGAGGUUUAUCGAAUUGUCGGCGGAUGCCUCCAAA, the KM came out at 0.126 ± 0.096 mM.

On to AUAAAAGCGCCACAACUACAGAAAUGUAGUUGACGAGGAGUAGGUUUAUCGAAUUUUCGGCGGAUGCCUCCAAA, for which the KM was 10.6 ± 6 mM.

Consider AUAAAAGCGCCAGCACUACAGAAAUGUAGUUGACGAGGAGGAGGUUGAUCGAAUUUUCGGCGGAUGCCUCCAAA, for which the KM turned out to be 2.5 ± 0.55 mM.

As for AUAAAAGCGCCAGCACUACAGAAAUGUAGUUGACGAGGAGGAGGUUUAUCGAAGUUUCGGCGGAUGCCUCCAAA, the KM was 3.31 ± 1.3 mM.

As to AUAAAAGCGCCAAAAUUACAGAAAUGUAGUUGACGAGGAGGAGGUUUAUCGAAUUUUCGGCGGAUGCCUCCAAA, the KM was 2.22 ± 0.46 mM.

Take AUAAAAGCGCCUGAACUACAGAAAUGUAGUUGACGAGGAGGAGGUUUAUCGUAUUUUCGGCGGAUGCCUCCAAA: the KM came out at 4.09 ± 0.49 mM.

AUAAAAGCGCCAUAAGUACAGAAAUGUAGUUGACGAGGAGGAGGUUUAUCGAAUUUUCGGCGGAUGCCUCCAAA: the KM came to 5.17 ± 0.95 mM.

Regarding AUAAAAGCGCCAUAAUUACAGAAAUGUAGUUGACGAGGAGGAGGUUUAUCGAAUUUUCGGCGGAUGCCUCCAAA, the KM worked out at 3.43 ± 1 mM.

As for AUAAAAGCGCCUGAACUACAGAAAUGUAGUGGACGAGGAGGAGGUUCAUCGAAUUUUCGGCGGAUGCCUCCAAA, the KM was 0.925 ± 0.88 mM.

Take AUAAAAGCGCCAUAACUACAGAAAUGUAGUUCACGAGGAGGAGGUUUAUCGAAUUUUCGGCGGAUGCCUCCAAA: the KM is 5.09 ± 3 mM.

Take AUAAAAGCGCCUGAACUACAGAAAUGUAGUUGACGAGGAGGAGGUUUAUCGAAUUUUCGGCGGAUCCCUCCAAA: the KM came to 1.27 ± 0.16 mM.

For the variant AUAAAAGCGCCUGAACUACAGAAAUGUAGUUGACGAGGAGGAUGUUUAUCGAAUUUUCGGCGGAUGCCUCCAAA, the Michaelis constant (KM) was determined as 1.79 ± 1.2 mM.

AUAAAAGCGCCUGAACUACAGAAAUGUAGUUGACGAGGAGGACGUUUAUCGAAUUUUCGGCGGAUGCCUCCAAA: the KM was 6.95 ± 1.5 mM.

Take AUAAAAGCGCCAAAACUACAGAAAUGUAGUUGACGAGGAGGAGGUUUAUCGAAUUUUCGGCGGAUGACUCCAAA: the KM came to 4.49 ± 2.1 mM.

Turning to AUAAAAGCGCCACAACUACAGAAAUGUAGUUGACGAGGAGGAGGUUUAUCGAAUGUUCGGCGGAUGCCUCCAAA, the KM turned out to be 2.56 ± 1.5 mM.

On to AUAAAAGCGCCGGAACUACAGAAAUGUAGUUGACGAGGAGGAGGUUUAGCGAAUUUUCGGCGGAUGCCUCCAAA, for which the Michaelis constant (KM) worked out at 138 ± 50 mM.

As to AUAAAAGCGCCUGAACUACAGAAAUGUAGUUGACGAGGAGGAGGUUGAUCGAAUUUUCGGCGGAUGCCUGCAAA, the KM came out at 0.179 ± 0.1 mM.

As to AUAAAAGCGCCAGCACUACAGAAAUGUAGUUGACCAGGAGGAGGUUUAUCGAAUUUUCGGCGGAUGCCUCCAAA, the KM turned out to be 0.488 ± 0.29 mM.

In the case of AUAAAAGCGCCGGAACUACAGAAAUGUAGUUGACGAGGAGGAGGUUUAUCGAAUUUUCGGCGGAUUCCUCCAAA, the KM amounted to 14.7 ± 7.3 mM.

Regarding AUAAAAGCGCCUGAACUACAGAAAUGUAGUUGACGAGGAGGAGGAUUAUCGAUUUUUCGGCGGAUGCCUCCAAA, the KM amounted to 1.1 ± 0.39 mM.

Turning to AUAAAAGCGCCAGCACUACAGAAAUGUAGUUGACGAGGAGGAGGGUUAUCGAAUUUUCGGCGGAUGCCUCCAAA, the KM was 3.41 ± 0.6 mM.

Consider AUAAAAGCGCCAGCACUACAGAAAUGUAGUUGACGAGGAGGAGGAUUAUCGAAUUUUCGGCGGAUGCCUCCAAA, for which the KM stood at 1.77 ± 0.9 mM.

The variants in the next data set derive from B1. Briefly: self-cleavage kobs at 160 uM GlcN6P; higher = faster cleavage; RNA array. The conditions noted are these: with glucosamine-6-phosphate. Summed up:
as §1
As for AUAAAAGCGCCAGCACUACAGAAAUGUACUUGACGAGGAGGAGGUUUAUCGAAUUUUCGGCGGAUGCCUCCAAA, the “self-cleavage kobs at 160 uM GlcN6P” value amounted to 2.18e-05 ± 2e-05 s⁻¹.

In the case of AUAAAAGCGCCAUAAGUACAGAAAUGUAGUUGACGAGGAGGAGGUUUAUCGAAUUUUCGGCGGAUGCCUCCAAA, the “self-cleavage kobs at 160 uM GlcN6P” value amounted to 2.08e-05 ± 1.7e-05 s⁻¹.

As for AUAAAAGCGCCAUAACUACAGAAAUGUAGUUCACGAGGAGGAGGUUUAUCGAAUUUUCGGCGGAUGCCUCCAAA, the “self-cleavage kobs at 160 uM GlcN6P” value came to 3.19e-05 ± 1.7e-05 s⁻¹.

The variants in a further data set derive from B1. Briefly: self-cleavage kobs at 640 uM GlcN6P; higher = faster cleavage; RNA array. As to conditions: with glucosamine-6-phosphate. A digest of the protocol: as §1
AUAAAAGCGCCAAAACUACAGAAAUGUAGUUGACGAGGAGGAGGUUUAUCGAAUUUUCGGCGGAAGCCUCCAAA: the “self-cleavage kobs at 640 uM GlcN6P” value was found to be 1.58e-05 ± 1.3e-05 s⁻¹.

Turning to AUAAAAGCGCCGGAACUACAGAAAUGUAGUUGACGAGGAGGAGGUUUAUCGAAUUUUCGGCGGAUUCCUCCAAA, the “self-cleavage kobs at 640 uM GlcN6P” value came to 2.42e-05 ± 1.5e-05 s⁻¹.

Variants of B1 are the subject of a further data set. Briefly: self-cleavage kobs at 10000 uM GlcN6P; higher = faster cleavage; RNA array. The conditions noted are these: with glucosamine-6-phosphate. Summed up:
as §1
Consider AUAAAAGCGCCACAACUACAGAAAUGUAGUUGACGAGGAGUAGGUUUAUCGAAUUUUCGGCGGAUGCCUCCAAA, for which the “self-cleavage kobs at 10000 uM GlcN6P” value amounted to 1.49e-05 ± 1.2e-05 s⁻¹.

A further data set covers variants of B1. In words: self-cleavage kobs at 40 uM GlcN6P; higher = faster cleavage; RNA array. As to conditions: with glucosamine-6-phosphate. Summed up: as §1
For the variant AUAAAAGCGCCUGAACUACAGAAAUGUAGUGGACGAGGAGGAGGUUCAUCGAAUUUUCGGCGGAUGCCUCCAAA, the “self-cleavage kobs at 40 uM GlcN6P” value is 2.54e-05 ± 1.3e-05 s⁻¹.

Take AUAAAAGCGCCAGCACUACAGAAAUGUAGUUGACGAGGAGGAGGGUUAUCGAAUUUUCGGCGGAUGCCUCCAAA: the “self-cleavage kobs at 40 uM GlcN6P” value amounted to 1.68e-05 ± 1.2e-05 s⁻¹.

The variants in the next data set derive from B1. Briefly: self-cleavage kobs at 2500 uM GlcN6P; higher = faster cleavage; RNA array. As to conditions: with glucosamine-6-phosphate. A digest of the protocol:
as §1
For the variant AUAAAAGCGCCGGAACUACAGAAAUGUAGUUGACGAGGAGGAGGUUUAGCGAAUUUUCGGCGGAUGCCUCCAAA, the “self-cleavage kobs at 2500 uM GlcN6P” value stood at 1.82e-05 ± 9.3e-06 s⁻¹.

The values above are taken from the supplement of paper PMC7125110.
